Results: PubChem BioAssay AID328 (DTP/NCI, 2004)
The list does not hold the whole screen: it gathers tests that were run many times, whatever their T/C, doses with no T/C, and many T/C values between a quarter and a half above the control. Further doses and runs are listed elsewhere. T/C: endpoint of the treated group in % of that of the vehicle group. Some entries give survivors of the animals treated and no T/C: the source files T/C as zero there, which appears to mark a toxic dose or a test without result, not a measured value. Some survivor counts are full or nearly so, which does not show that the dose was tolerated: survival well below the control is almost never listed, so the zero probably covers shortened survival too. Survivors were counted at the toxicity check, usually on the fifth day, unless a day is given; later deaths do not show. Schedules are NCI's codes, read here as Q, the interval in days (D) or hours (H), X, the number of doses. Some entries hold several experiments; the values are given in rising order. Brackets with × stand for listed records that agree. Where survival is the endpoint, this PubChem deposit counts one and a half times the control or more as active, and values a quarter to a half above the control carry no call in these data; other NCI protocols may use other cut-offs. Some T/C values are followed by the survivors on the day toxicity was checked, most often the fifth; where none is given, no animal had died by that day.

Tested on: BDF1 mice, P388 leukemia ip, median survival T/C
Experiment: NCI In Vivo Anticancer Drug Screen. Data for tumor model P388 Leukemia (intraperitoneal) in B6D2F1 (BDF1) mice
Settings: T/C endpoint: median survival time, higher T/C = longer survival
In short: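 Read-out is survival of treated animals expressed relative to the vehicle group, as a T/C ratio.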

[1] = dose: 2.0 mg/kg/injection, schedule: Q01DX009 (ip), vehicle: saline + alcohol

For `COC(=O)[C@@]12OC[C@]34[C@H]([C@@H](O)[C@@H]1O)[C@@]1(C)CC(=O)C(O)=C(C)[C@@H]1C[C@H]3OC(=O)[C@H](OC(=O)/C=C(\C)C(C)C)[C@@H]24`, the T/C [1] was 198 % of control, the survivor count [1] was 6 of 10 (2×) and 8 of 10 and the survivor count (dose: 2.0 mg/kg/injection, schedule: Q01DX009 (ip), vehicle: saline with Tween-80) was 6 of 10. The survivor count (dose: 2.0 mg/kg/injection, schedule: Q01DX009 (ip), vehicle: saline) was 3 of 6, the survivor count (dose: 2.0 mg/kg/injection, schedule: Q03HX008 (ip), vehicle: saline + alcohol) was 0 of 10 and the survivor count (dose: 2.0 mg/kg/injection, schedule: Q03HX008 (ip), vehicle: saline with Tween-80) was 0 of 10. The survivor count (dose: 2.0 mg/kg/injection, schedule: Q03HX016 (ip), vehicle: saline + alcohol) was 0 of 10, the survivor count (dose: 2.0 mg/kg/injection, schedule: Q03HX016 (ip), vehicle: saline with Tween-80) was 0 of 10 and the T/C (dose: 2.0 mg/kg/injection, schedule: Q04DX003 (ip), vehicle: saline + alcohol) was 125 % of control. The T/C (dose: 2.0 mg/kg/injection, schedule: Q04DX003 (ip), vehicle: saline with Tween-80) was 126 % of control, the survivor count (dose: 2.25 mg/kg/injection, schedule: Q01DX009 (ip), vehicle: saline with Tween-80) was 6 of 10 and the survivor count (dose: 3.0 mg/kg/injection, schedule: Q04DX003 (ip), vehicle: saline + alcohol) was 4 of 8 and 5 of 8. The survivor count (dose: 3.2 mg/kg/injection, schedule: Q01DX005 (ip), vehicle: saline + alcohol) was 7 of 10, the survivor count (dose: 4.0 mg/kg/injection, schedule: Q01DX001 (ip), vehicle: saline + alcohol) was 5 of 10 and the survivor count (dose: 4.0 mg/kg/injection, schedule: Q01DX001 (ip), vehicle: saline with Tween-80) was 1 of 10. The survivor count (dose: 4.0 mg/kg/injection, schedule: Q01DX001 (sc), vehicle: saline + alcohol) was 6 of 10, the survivor count (dose: 4.0 mg/kg/injection, schedule: Q01DX009 (ip), vehicle: saline + alcohol) was 1 of 10 and the survivor count (dose: 4.0 mg/kg/injection, schedule: Q01DX009 (ip), vehicle: saline with Tween-80) was 3 of 10. For the same compound, the survivor count (dose: 4.0 mg/kg/injection, schedule: Q01DX009 (ip), vehicle: saline) was 0 of 6, the survivor count (dose: 4.0 mg/kg/injection, schedule: Q04DX003 (ip), vehicle: saline + alcohol) was 6 of 10 and the survivor count (dose: 4.0 mg/kg/injection, schedule: Q04DX003 (ip), vehicle: saline with Tween-80) was 0 of 10. For the same compound, the survivor count (dose: 4.0 mg/kg/injection, schedule: Q08DX002 (ip), vehicle: saline + alcohol) was 10 of 10, the survivor count (dose: 4.0 mg/kg/injection, schedule: Q08DX002 (ip), vehicle: saline with Tween-80) was 3 of 10 and the survivor count (dose: 5.0 mg/kg/injection, schedule: Q04DX003 (ip), vehicle: saline + alcohol) was 0 of 8. For the same compound, the survivor count (dose: 8.0 mg/kg/injection, schedule: Q01DX001 (ip), vehicle: saline + alcohol) was 0 of 10, the survivor count (dose: 8.0 mg/kg/injection, schedule: Q01DX001 (ip), vehicle: saline with Tween-80) was 0 of 10 and the survivor count (dose: 8.0 mg/kg/injection, schedule: Q01DX001 (sc), vehicle: saline + alcohol) was 0 of 10. The survivor count (dose: 8.0 mg/kg/injection, schedule: Q01DX009 (oral), vehicle: saline + alcohol) was 1 of 10 and 3 of 10, the survivor count (dose: 8.0 mg/kg/injection, schedule: Q08DX002 (ip), vehicle: saline + alcohol) was 0 of 10 and the survivor count (dose: 8.0 mg/kg/injection, schedule: Q08DX002 (ip), vehicle: saline with Tween-80) was 0 of 10. For the same compound, the survivor count (dose: 16.0 mg/kg/injection, schedule: Q01DX001 (ip), vehicle: saline + alcohol) was 0 of 10, the survivor count (dose: 16.0 mg/kg/injection, schedule: Q01DX001 (ip), vehicle: saline with Tween-80) was 0 of 10 and the survivor count (dose: 16.0 mg/kg/injection, schedule: Q01DX001 (oral), vehicle: saline + alcohol) was 1 of 10 and 3 of 10. For the same compound, the survivor count (dose: 16.0 mg/kg/injection, schedule: Q01DX001 (sc), vehicle: saline + alcohol) was 0 of 10, the survivor count (dose: 16.0 mg/kg/injection, schedule: Q08DX002 (ip), vehicle: saline + alcohol) was 0 of 10 and the survivor count (dose: 16.0 mg/kg/injection, schedule: Q08DX002 (ip), vehicle: saline with Tween-80) was 0 of 10. For the same compound, the T/C (dose: 11.2 micrograms/kg/injection, schedule: Q01DX009 (ip), vehicle: saline + alcohol) was 135 % of control, the T/C (dose: 22.5 micrograms/kg/injection, schedule: Q01DX009 (ip), vehicle: saline + alcohol) was 140 % of control and the T/C (dose: 648.0 micrograms/kg/injection, schedule: Q01DX004 (ip), vehicle: saline + alcohol) was 140 % of control [6 of 8 alive]. The survivor count (dose: 1080.0 micrograms/kg/injection, schedule: Q01DX004 (ip), vehicle: saline + alcohol) was 2 of 8, the survivor count (dose: 1800.0 micrograms/kg/injection, schedule: Q01DX004 (ip), vehicle: saline + alcohol) was 1 of 8 and the survivor count (dose: 2000.0 micrograms/kg/injection, schedule: Q01DX009 (ip), vehicle: saline + alcohol) was 3 of 8.
